In article PMC4912613, “A broad analysis of resistance development in the malaria parasite” (Nature Communications, 2016):

System: PfATP4-Mut3 (PfATP4 F917L, parent 3D7)
Assay: Cross-resistance EC50 assay, PfATP4-Mut3
Assay type: cell-based, Plasmodium falciparum
Conditions: hypoxanthine 48-hour assay; synchronized parasites; 96-well format; strain PfATP4 Mut3
Excerpt: To evaluate potential overlapping activity against known antimalarial drug targets, we performed dose-response studies with each compound against our assembled set of drug-resistant lines and their corresponding parents, in an asexual blood stage proliferation assay (Table 1). Comparisons were made to the drug-sensitive strain 3D7 when a parent was unavailable (TM90C2A, W2 and Dd2). As laboratories conducted EC50 assays with different strains and protocols, all comparisons were made between assays from the same laboratory and under the same assay conditions. Compounds displaying >5-fold EC50 shifts relative to the parent or sensitive strain were flagged as having potentially non-novel targets. Average fold shifts per strain ranged from 0.82 to 2.34, with a median of 1.23 indicating there was not common resistance to any one resistant clone. No resistance patterns were observed when classifying the compounds based on chemical structure, but this was not surprising given the diversity of compounds chosen. On the other hand, given that these confirmed compounds were derived from larger unconfirmed hit lists to which some filtration criteria may have been applied (for example, elimination of obvious dihydrofolate reductase inhibitors[32]), some[10][11][12][13] pre-existing bias may exist in the set.
The 48-h assay was carried out in a 96-well format following standard methods using the ^3H-hypoxanthine incorporation assay. The raw EC50 values corresponding to this assay can be found in Supplementary Data 3. Briefly, this assay relies on the parasite incorporation of labelled hypoxanthine that is proportional to P. falciparum growth. A culture of parasitized RBCs (0.5% parasitemia with a percentage of ring stage higher than 70% of total parasitemia, 2.0% haematocrit) in RPMI-1640, […] and 5 μM hypoxanthine was exposed to drug serial dilutions. Plates were incubated for 24 h at 37 °C, 5% CO2, 5% O2 and 90% N2. After 24 h of incubation, ^3H-hypoxanthine was added and plates were incubated for an additional 24-h period. After that, parasites were harvested on a glass fibre filter using a TOMTEC Cell Harvester 96. Filters were dried and melt-on scintillator sheets were used to determine the incorporation of ^3H-hypoxanthine. Radioactivity was measured using a microbeta counter. Data were normalized using the incorporation of the positive (parasitized RBCs without drug) and negative (same culture with artesunate at 2 μM) controls. All assays were conducted in triplicate using three independently grown cultures, and EC50 values were determined using the XLfit add-in module for Excel (version 2.3.1) from Grafit (version 5.3.1.3), where parameter h is the assay hill slope, x is the compound concentration and y is the inhibition of growth effect. The XLfit equation is: […]
Alternatively, a SYBR Green-based proliferation approach was used for the 72-h assay, as previously described. Briefly, a culture of either synchronized or asynchronous parasitized RBCs (0.3% parasitemia and 4% haematocrit) in screening medium (identical to supplemented medium above except no serum was added) was exposed to serial drug dilutions. Plates were incubated at 37 °C and gassed with 93% N2, 4% CO2 and 3% O2 for 72 h. Following incubation, 10 × SYBR Green I (Invitrogen; supplied in 10,000 × concentration) in lysis buffer ([…], 5 mM EDTA, 0.16% Saponin wt per vol and 1.6% Triton X vol per vol) was added to the wells and the plates were incubated overnight at room temperature before plate reading. EC50 assays were repeated three times, taking the average EC50 value from each assay set, and removing any outliers using a single iteration of Grubbs' test, eliminating values with z-scores above the critical z-value (α=0.05). The raw EC50 values for synchronized parasites assayed in a 384-well format are listed in Supplementary Data 4. The raw EC50 values for asynchronous parasites assayed in a 96 or 1536-well format are listed in Supplementary Data 5. […]

Structure (SMILES) | PfATP4 Mut3 (3D7-C9-WT Parent) Average Hill Slope
Brc1ccc(Nc2nc3ccccc3nc2Nc2ccc(Br)cc2)cc1 [MMV007224] | 2.72
Cc1ccc(Oc2ncccc2C(=O)Cc2cccc3cccnc23)c(C)c1 [MMV020746] | 1.85
CCCOCc1cc(CN2CCN(c3cccc(Cl)c3)CC2)c(O)c2ncccc12 [MMV000787] | 1.77
Cc1ccc(S(=O)(=O)n2cc(-c3ccnc(N)c3)c3cc(Br)cnc32)cc1 [MMV024114] | 2.38
COc1cc(-c2nc(-c3ccccc3)c(-c3ccccc3)[nH]2)ccc1OCCN(C)C [MMV027496] | 3.50
COc1ccc2c3c([nH]c2c1)[C@H](CO)N(C(C)=O)CC31CCN(C(=O)Nc2ccccc2F)CC1 [MMV673482] | 1.13
COc1ccc(-c2nc(NC(=O)Cc3ccc4c(c3)OCCO4)sc2C)cc1 [MMV019719] | 1.60
COC(=O)c1ccc(C2C3=C(O)CC(c4ccc(F)cc4)CC3=Nc3ccccc3N2C(=O)c2ccccc2)cc1 (centres unmarked) [MMV011438] | 3.34
COc1cc(-c2nc(-c3ccccc3)c(-c3ccccc3)[nH]2)cc(OC)c1O [MMV020750] | 1.72
COc1cc2cc(C(=O)Nc3ccccc3)c(N)nc2cc1OC [MMV006767] | 2.98
COc1ccc(N2CCN(C(CNC(=O)C3CCCCC3)c3ccc4c(c3)OCO4)CC2)cc1 (centres unmarked) [MMV019662] | 1.61
OC(CNC1CCCCC1)Cn1c2ccc(I)cc2c2cc(I)ccc21 (centres unmarked) [MMV665882] | 1.45
CC(C)c1cccc(C(NC(=O)C2Cc3ccccc3CN2C(=O)c2cccc(N3CCOCC3)c2)C2CCCC2)c1 (centres unmarked) [MMV028038] | 0.92
Cc1nc2ccc3ccc(CNc4ccc(C(=O)CC(CCC(=O)O)C(=O)O)cc4)cc3c2c(=O)[nH]1.Cl (centres unmarked) [MMV027634] | 1.07
Cc1c(C)n(Cc2ccc(F)cc2)c2ccc(C(=O)NCc3ccco3)cc12 [MMV008149] | 0.73
CN1CCN(c2ccc(Nc3c4ccccc4nc4ccccc34)cc2)CC1 [MMV006172] | 3.95
O=C(Nc1ccsc1C(=O)NC1CCCCC1)c1ccc(F)cc1 [MMV665939] | 1.22
Cl.c1ccc2c(NCCCCCCNc3c4c(nc5ccccc35)CCCC4)c3c(nc2c1)CCCC3 [MMV019555] | 3.13
Nc1ccc(-c2nc3cc(Cc4ccc5[nH]c(-c6ccc(N)cc6)nc5c4)ccc3[nH]2)cc1 [MMV665943] | 2.79
CC(NCc1ccccc1)c1cc(Cl)ccc1O (centres unmarked) [MMV665789] | 2.07
CN(C)Cc1ccc(-c2cc3c(-c4ccc(CN(C)C)cc4)ccnc3[nH]2)cc1.O=C(O)C(F)(F)F [MMV022224] | 2.47

Structure (SMILES) | PfATP4 Mut3 (3D7-C9-WT Parent) Average Hill Slope
c1cncc(-c2cc(N3CCC(CN4CCOCC4)CC3)nc(-c3ccncc3)n2)c1 [MMV668399] | 1.62
COc1ccc(C(=O)C2CC2c2ccc(Cl)cc2)cc1 (centres unmarked) [MMV665924] | 2.26
CCN(CC)CCn1c(=N)n(CC(O)c2ccc(Cl)c(Cl)c2)c2ccccc21.Cl (centres unmarked) [MMV000248] | 3.52
CC(C)(C)OC(=O)N1CCN(c2ccccc2NC(=O)c2cccc(C(F)(F)F)c2Oc2ccc(F)cc2)CC1 [MMV030666] | 1.19
O=C(NC(c1ccccc1)c1ccc2cccnc2c1O)c1ccccc1 (centres unmarked) [MMV666080] | 0.66
CN(C)CCCNCc1ccc(-c2ccc(Cl)c(Cl)c2)o1 [MMV673964] | 3.28
COc1ccccc1CNC(=O)CCn1c(=O)[nH]c2ccsc2c1=O [MMV019066] | 0.57
CN(C)S(=O)(=O)c1cc(-c2ccc3nccc(-c4cccc(S(N)(=O)=O)c4)c3c2)cnc1N [MMV024038] | 1.59
Nc1ncc(-c2cn[nH]c2)cc1-c1nc2ccc(F)cc2[nH]1 [MMV023367] | 2.82
c1cc(-c2cnc3ccc(-c4ccc(N5CCOCC5)cc4)nn23)ccn1 [MMV668311] | 2.56
Cc1cc(Nc2ccc(OCc3ccccc3)cc2)nc2cc(O)ccc12 [MMV007181] | 1.62
CN(C)CCCN(C)C(=O)C1Cc2cc(-c3ccccc3)ccc2N1S(=O)(=O)c1ccccc1 (centres unmarked) [MMV028895] | 1.57
CCC(C)NCC(O)(c1ccc(Cl)cc1)c1ccc(Cl)cc1 (centres unmarked) [MMV665928] | 2.03
CCOc1cc2c(cc1OCC)C(c1cc(Cl)ccc1O)NCC2 (centres unmarked) [MMV000478] | 1.41
COc1cc(C(=O)ON=C(N)Cc2cccc3ccccc23)cc(OC)c1OC [MMV666687] | 1.70
Cc1ccc(Cn2c(N3CCC(C(=O)NCc4cccs4)CC3)nc3ccccc32)cc1 [MMV007564] | 1.79
CCCCCCCN(Cc1ccc(OC(C)(C)C(=O)OCC)cc1)C(=O)Nc1ccc(Cl)cc1OCC [MMV021735] | 1.31
CCN(CC)S(=O)(=O)c1ccc(-c2csc(Nc3ccc(C)c(C)c3)n2)cc1 [MMV009108] | 1.09
CNCc1ccc2nc(-c3coc(Cc4cc(Cl)ccc4OCC(C)C)n3)[nH]c2c1.Cl.Cl [MMV026596] | 4.59
O=C(NCC(CCCN1CCC(c2c[nH]c3ccccc23)CC1)c1ccccc1)Nc1ccc(Cl)c(Cl)c1 (centres unmarked) [MMV029272] | 1.46
